Measurements taken from paper PMC8262337.

Amino acid sequences for entries named in this document (tags omitted). A change or cut given only in a name is not applied to a line headed by its entry.
UniProt Q96AP0: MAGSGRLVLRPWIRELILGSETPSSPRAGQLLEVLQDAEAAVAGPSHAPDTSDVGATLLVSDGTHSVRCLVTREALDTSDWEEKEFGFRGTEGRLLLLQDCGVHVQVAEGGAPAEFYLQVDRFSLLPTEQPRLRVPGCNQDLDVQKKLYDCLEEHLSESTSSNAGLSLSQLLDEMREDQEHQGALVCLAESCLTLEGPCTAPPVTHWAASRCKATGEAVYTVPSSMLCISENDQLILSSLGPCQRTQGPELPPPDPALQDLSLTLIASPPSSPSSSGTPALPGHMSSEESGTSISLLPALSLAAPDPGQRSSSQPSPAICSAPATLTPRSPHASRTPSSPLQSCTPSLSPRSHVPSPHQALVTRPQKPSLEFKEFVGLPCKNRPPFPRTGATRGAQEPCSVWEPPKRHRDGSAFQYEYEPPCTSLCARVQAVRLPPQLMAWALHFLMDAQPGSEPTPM

T1: Myc-tagged TIN2 (UniProt Q9BSI4)
T1 sequence: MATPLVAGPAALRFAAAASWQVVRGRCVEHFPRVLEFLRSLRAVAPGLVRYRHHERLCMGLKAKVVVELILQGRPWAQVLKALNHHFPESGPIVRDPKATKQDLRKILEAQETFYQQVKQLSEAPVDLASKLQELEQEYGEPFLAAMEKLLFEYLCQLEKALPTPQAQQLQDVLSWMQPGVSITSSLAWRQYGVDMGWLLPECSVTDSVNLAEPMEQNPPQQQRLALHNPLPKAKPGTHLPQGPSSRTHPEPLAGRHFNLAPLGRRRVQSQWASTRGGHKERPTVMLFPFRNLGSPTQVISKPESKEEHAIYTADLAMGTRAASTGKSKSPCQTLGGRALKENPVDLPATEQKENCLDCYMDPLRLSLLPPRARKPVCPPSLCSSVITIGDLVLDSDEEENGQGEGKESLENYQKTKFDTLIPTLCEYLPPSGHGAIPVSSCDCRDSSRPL


Assays:
Myc-tagged TIN2 = molecular target: T1, Myc-tagged TIN2; assay: co-IP; Myc-TIN2, FLAG-TRF2 and the FLAG-TPP1 construct transiently coexpressed in HeLa-EM2-11ht cells; c-Myc antibody 9E10, then protein A/G agarose overnight at 4 °C; blot with anti-FLAG (Figure 3A)
[1] = molecular target: FLAG-tagged TPP1 D496A (human) (UniProt Q96AP0); assay: co-IP; FLAG-TPP1 construct and Myc-POT1 or Myc-TIN2 transiently coexpressed in HeLa-EM2-11ht cells; lysate on anti-FLAG M2 affinity gel overnight at 4 °C; blot with anti-Myc and anti-FLAG (Figure 2A, 2B)
[2] = molecular target: FLAG-tagged TPP1 F500A/Q501A (human) (UniProt Q96AP0); assay: as above
[3] = molecular target: FLAG-tagged TPP1 L511A (human) (UniProt Q96AP0); assay: as above
[4] = molecular target: FLAG-tagged TPP1 L524A/W527A (human) (UniProt Q96AP0); assay: as above
[5] = molecular target: FLAG-tagged TPP1 P507A (human) (UniProt Q96AP0); assay: as above
[6] = molecular target: FLAG-tagged TPP1 R519A/L520A (human) (UniProt Q96AP0); assay: as above
[7] = molecular target: FLAG-tagged TPP1 Y502A/Y504A (human) (UniProt Q96AP0); assay: as above

Row | binding (Myc-tagged TIN2) | binding [1] | binding [2] | binding [3] | binding [4] | binding [5] | binding [6] | binding [7] | Molecule
1 | no binding | – | – | – | – | – | – | – | FLAG-tagged TPP1 R519A/L520A (from UniProt Q96AP0)
2 | binds | – | – | – | – | – | – | – | FLAG-tagged TPP1 (human TPP1-S isoform), wild type (from UniProt Q96AP0)
3 | – | no binding | no binding | binds | no binding | no binding | no binding | no binding | Myc-tagged TIN2 (protein, UniProt Q9BSI4 1-451) MATPLVAGPAALRFAAAASWQVVRGRCVEHFPRVLEFLRSLRAVAPGLVRYRHHERLCMGLKAKVVVELILQGRPWAQVLKALNHHFPESGPIVRDPKATKQDLRKILEAQETFYQQVKQLSEAPVDLASKLQELEQEYGEPFLAAMEKLLFEYLCQLEKALPTPQAQQLQDVLSWMQPGVSITSSLAWRQYGVDMGWLLPECSVTDSVNLAEPMEQNPPQQQRLALHNPLPKAKPGTHLPQGPSSRTHPEPLAGRHFNLAPLGRRRVQSQWASTRGGHKERPTVMLFPFRNLGSPTQVISKPESKEEHAIYTADLAMGTRAASTGKSKSPCQTLGGRALKENPVDLPATEQKENCLDCYMDPLRLSLLPPRARKPVCPPSLCSSVITIGDLVLDSDEEENGQGEGKESLENYQKTKFDTLIPTLCEYLPPSGHGAIPVSSCDCRDSSRPL

Results are given in words; binding and its absence hold for the method and conditions named. Binding seen in cells or lysates may run through a third protein. For part of these data: A result given as binding can be weak or reduced; the word gives no strength. Sequences can lack the tags named with a protein.
